Entries after “also recorded” stand apart in the source; their conditions may differ.

The test system of the data set is DPPIV, MMP-2, leukocyte elastase, cathepsin G. Put plainly: Protease resistance profile based on FRET-peptide cleavage assay. Format: biochemical. The conditions noted are these: proteases the variant is resistant to.
On to “SSDF-1 (L5D): SDF-1 with Leu→Asp at position 5 and N-terminal serine”, for which the Resistance result is on record as “DDPIV, MMP-2,; also recorded: Elastase,; also recorded: Cathepsin G”. With “SSDF-1 (L5E): SDF-1 with Leu→Glu at position 5 and N-terminal serine” the entry was “DDPIV, MMP-2,; also recorded: elastase,; also recorded: cathepsin G”; with “SSDF-1 (L5H): SDF-1 with Leu→His at position 5 and N-terminal serine”, “DDPIV, MMP-2,; also recorded: Cathepsin G”. Turning to “SSDF-1 (L5K): SDF-1 with Leu→Lys at position 5 and N-terminal serine”, the Resistance result is reported as “DDPIV, MMP-2,; also recorded: Elastase”. For “SSDF-1 (L5P): SDF-1 with Leu→Pro at position 5 (SEQ ID NO:66) and N-terminal serine”, the Resistance entry is reported as “DDPIV, MMP-2,; also recorded: elastase,; also recorded: cathepsin G”. To “SSDF-1 (L5T): SDF(L5T) (SEQ ID NO:56) with N-terminal serine” belongs “DPPIV, MMP-2,; also recorded: Cathepsin G”.

With “SSDF-1 (L5V): SDF(L5V) (SEQ ID NO:60) with N-terminal serine”, the Resistance result was “DPPIV, MMP-2,; also recorded: Cathepsin G”.

As to “SSDF-1 (L5W): SDF-1 with Leu→Trp at position 5 and N-terminal serine”, the Resistance entry is listed as “DDPIV, MMP-2”. With “SSDF-1 (S4V): SDF-1(S4V) (SEQ ID NO:65) with a serine residue added at the N-terminus” the entry was “DDPIV, MMP-2”; with “SSDF-1 (S6C): SDF(S6C) (SEQ ID NO:61) with N-terminal serine”, “DPPIV, MMP-2”.

For “SSDF-1 (S6G): SDF(S6G) (SEQ ID NO:62) with N-terminal serine”, the Resistance result is given as “DPPIV, MMP-2,; also recorded: Cathepsin G”. In the case of “SSDF-1 (V3C): SDF(V3C) (SEQ ID NO:55) with N-terminal serine”, the Resistance result is listed as “DPPIV, elastase”. To “SSDF-1 (V3D): SDF-1 with Val→Asp at position 3 and N-terminal serine” belongs “DDPIV, MMP-2,; also recorded: elastase,; also recorded: Cathepsin G”; to “SSDF-1 (V3G): SDF-1 with Val→Gly at position 3 and N-terminal serine”, “DDPIV,; also recorded: elastase,; also recorded: Cathepsin G”. To “SSDF-1 (V3H): SDF(V3H) (SEQ ID NO:54) with N-terminal serine” belongs “DPPIV, elastase”; to “SSDF-1 (V3P): SDF-1 with Val→Pro at position 3 and N-terminal serine”, “DDPIV, MMP-2,; also recorded: elastase,; also recorded: Cathepsin G”.

As for “SSDF-1: SDF-1 with a serine residue added at the N-terminus”, the Resistance result was “DPPIV”.

The values above are taken from US10456451B2, “Protease-resistant mutants of stromal cell derived factor-1 in the repair of tissue damage” (Mesoblast International Sàrl, priority 2010, dated 2019).
